Data reported in the supplement of paper PMC10849652.
The other results are listed elsewhere or left out. Residues, ends and D or L forms follow the SMILES beside them. *: point of attachment. Cbz = O=C(OCc1ccccc1)*

By UniProt entry, the sequences of proteins in these tests, tags left out. Where a name states a change or a piece, a line headed by the entry shows the natural chain unless it says otherwise.
UniProt P08123: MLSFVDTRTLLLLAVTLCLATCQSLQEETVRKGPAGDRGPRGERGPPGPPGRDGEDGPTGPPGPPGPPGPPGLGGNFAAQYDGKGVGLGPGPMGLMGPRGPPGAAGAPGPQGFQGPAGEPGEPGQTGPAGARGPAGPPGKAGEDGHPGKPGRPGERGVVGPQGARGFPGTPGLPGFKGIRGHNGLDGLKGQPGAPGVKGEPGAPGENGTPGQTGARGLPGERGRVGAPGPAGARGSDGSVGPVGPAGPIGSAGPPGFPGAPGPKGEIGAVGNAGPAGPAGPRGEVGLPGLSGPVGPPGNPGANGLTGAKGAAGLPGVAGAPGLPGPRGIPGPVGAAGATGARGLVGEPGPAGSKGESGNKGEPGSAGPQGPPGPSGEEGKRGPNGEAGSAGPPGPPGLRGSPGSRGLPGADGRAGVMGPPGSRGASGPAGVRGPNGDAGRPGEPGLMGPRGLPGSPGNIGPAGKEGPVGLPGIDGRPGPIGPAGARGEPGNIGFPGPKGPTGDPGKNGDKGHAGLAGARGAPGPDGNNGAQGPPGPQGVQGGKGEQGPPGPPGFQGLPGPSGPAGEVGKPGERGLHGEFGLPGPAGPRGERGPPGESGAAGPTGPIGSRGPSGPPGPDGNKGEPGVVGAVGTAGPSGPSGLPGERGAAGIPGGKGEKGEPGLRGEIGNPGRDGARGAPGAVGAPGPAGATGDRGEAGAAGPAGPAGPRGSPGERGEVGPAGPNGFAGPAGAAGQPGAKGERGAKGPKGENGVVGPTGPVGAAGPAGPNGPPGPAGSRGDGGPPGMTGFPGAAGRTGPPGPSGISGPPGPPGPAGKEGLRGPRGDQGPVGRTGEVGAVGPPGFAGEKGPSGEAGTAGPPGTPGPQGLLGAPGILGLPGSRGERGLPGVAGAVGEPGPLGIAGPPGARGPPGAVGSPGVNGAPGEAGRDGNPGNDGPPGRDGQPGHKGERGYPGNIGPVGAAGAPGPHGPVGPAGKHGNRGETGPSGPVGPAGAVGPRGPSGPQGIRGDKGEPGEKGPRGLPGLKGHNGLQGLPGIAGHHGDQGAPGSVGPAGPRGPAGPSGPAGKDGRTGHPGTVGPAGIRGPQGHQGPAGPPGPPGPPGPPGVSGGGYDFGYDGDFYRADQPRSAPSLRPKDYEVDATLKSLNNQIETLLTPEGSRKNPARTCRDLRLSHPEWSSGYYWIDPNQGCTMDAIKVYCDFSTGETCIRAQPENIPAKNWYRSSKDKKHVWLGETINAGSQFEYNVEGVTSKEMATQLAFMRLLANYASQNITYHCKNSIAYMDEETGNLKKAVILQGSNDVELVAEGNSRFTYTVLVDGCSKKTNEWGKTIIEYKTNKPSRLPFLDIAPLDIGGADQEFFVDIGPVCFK
UniProt P09543: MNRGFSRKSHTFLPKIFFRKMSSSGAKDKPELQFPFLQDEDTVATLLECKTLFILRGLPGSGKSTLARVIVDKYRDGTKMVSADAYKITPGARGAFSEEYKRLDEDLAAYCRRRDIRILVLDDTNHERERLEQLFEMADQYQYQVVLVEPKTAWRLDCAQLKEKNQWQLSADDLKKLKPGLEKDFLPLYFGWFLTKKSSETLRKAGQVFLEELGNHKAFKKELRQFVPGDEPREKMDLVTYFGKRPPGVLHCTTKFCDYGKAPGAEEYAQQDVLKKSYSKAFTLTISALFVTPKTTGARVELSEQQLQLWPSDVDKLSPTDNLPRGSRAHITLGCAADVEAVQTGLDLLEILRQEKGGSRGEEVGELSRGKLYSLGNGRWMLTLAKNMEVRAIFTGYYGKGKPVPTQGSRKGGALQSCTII
UniProt Q9H6Q4: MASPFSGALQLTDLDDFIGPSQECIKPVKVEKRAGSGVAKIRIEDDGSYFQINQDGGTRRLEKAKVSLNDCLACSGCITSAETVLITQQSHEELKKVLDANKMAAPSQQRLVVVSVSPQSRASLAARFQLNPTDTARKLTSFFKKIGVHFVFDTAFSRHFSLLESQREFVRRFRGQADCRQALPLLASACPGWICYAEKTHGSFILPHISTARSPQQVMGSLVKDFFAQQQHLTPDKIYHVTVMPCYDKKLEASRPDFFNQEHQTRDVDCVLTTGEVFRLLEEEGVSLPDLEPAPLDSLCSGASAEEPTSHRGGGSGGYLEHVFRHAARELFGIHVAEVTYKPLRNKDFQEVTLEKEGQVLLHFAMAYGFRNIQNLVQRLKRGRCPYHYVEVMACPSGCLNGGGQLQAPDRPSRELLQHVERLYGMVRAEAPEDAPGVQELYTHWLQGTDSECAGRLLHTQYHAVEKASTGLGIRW
UniProt Q9GZY4: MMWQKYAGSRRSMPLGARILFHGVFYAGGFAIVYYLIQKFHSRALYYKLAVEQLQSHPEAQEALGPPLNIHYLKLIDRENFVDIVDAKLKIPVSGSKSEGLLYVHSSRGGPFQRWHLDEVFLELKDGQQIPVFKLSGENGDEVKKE
UniProt Q99828: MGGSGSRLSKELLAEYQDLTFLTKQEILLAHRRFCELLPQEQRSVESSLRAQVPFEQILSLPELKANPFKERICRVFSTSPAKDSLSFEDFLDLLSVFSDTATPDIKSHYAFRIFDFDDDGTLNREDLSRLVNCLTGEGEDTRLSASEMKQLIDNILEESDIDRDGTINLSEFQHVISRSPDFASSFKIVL
UniProt O76071: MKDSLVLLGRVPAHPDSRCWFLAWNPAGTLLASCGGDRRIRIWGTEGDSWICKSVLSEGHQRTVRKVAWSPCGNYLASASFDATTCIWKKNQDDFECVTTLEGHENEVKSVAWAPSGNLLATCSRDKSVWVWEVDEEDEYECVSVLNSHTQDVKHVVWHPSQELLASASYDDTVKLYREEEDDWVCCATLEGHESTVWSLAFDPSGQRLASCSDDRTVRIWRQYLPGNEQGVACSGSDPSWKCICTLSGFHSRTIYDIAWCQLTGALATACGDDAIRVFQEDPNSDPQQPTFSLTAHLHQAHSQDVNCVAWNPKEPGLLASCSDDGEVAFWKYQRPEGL
UniProt Q96DG6: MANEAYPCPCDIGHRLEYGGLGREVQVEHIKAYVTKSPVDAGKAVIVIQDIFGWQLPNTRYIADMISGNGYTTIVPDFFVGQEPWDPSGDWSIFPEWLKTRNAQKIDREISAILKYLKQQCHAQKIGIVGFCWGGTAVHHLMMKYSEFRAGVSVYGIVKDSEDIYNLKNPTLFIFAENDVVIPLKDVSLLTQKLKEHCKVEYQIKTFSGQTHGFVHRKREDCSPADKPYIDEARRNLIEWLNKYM
UniProt Q8WUX9: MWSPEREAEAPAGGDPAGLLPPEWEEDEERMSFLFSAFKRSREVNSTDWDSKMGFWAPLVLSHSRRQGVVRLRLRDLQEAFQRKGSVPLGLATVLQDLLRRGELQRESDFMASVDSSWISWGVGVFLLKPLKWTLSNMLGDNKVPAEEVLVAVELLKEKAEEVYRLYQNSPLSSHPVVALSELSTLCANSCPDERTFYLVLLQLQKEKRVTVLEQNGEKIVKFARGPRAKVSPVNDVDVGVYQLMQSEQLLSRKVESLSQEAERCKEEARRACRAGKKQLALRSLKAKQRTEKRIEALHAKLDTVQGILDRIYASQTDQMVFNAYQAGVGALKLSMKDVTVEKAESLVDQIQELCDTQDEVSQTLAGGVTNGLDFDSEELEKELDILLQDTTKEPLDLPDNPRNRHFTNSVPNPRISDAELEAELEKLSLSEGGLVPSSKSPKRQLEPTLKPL
UniProt Q9NX76: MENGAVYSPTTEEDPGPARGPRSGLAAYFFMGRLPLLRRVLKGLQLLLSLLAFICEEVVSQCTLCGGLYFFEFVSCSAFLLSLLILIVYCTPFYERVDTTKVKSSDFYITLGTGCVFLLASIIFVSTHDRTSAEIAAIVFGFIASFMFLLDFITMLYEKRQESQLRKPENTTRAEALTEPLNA
UniProt Q14011: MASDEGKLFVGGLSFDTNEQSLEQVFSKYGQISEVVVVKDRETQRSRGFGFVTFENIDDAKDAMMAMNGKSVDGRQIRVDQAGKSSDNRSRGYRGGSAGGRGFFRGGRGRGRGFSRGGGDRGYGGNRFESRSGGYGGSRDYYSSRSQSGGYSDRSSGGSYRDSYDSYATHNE
UniProt P62633: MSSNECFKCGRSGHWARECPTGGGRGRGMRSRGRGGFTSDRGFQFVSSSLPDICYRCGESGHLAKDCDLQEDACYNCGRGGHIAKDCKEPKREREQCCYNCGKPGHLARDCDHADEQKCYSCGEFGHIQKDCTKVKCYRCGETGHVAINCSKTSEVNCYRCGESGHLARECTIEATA
UniProt Q96FZ7: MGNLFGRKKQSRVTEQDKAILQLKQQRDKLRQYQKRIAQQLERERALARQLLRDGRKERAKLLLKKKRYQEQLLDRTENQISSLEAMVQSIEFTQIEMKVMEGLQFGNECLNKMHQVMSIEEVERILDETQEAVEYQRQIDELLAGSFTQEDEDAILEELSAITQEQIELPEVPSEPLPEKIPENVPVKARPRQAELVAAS
UniProt O75175, whole entry, looked up: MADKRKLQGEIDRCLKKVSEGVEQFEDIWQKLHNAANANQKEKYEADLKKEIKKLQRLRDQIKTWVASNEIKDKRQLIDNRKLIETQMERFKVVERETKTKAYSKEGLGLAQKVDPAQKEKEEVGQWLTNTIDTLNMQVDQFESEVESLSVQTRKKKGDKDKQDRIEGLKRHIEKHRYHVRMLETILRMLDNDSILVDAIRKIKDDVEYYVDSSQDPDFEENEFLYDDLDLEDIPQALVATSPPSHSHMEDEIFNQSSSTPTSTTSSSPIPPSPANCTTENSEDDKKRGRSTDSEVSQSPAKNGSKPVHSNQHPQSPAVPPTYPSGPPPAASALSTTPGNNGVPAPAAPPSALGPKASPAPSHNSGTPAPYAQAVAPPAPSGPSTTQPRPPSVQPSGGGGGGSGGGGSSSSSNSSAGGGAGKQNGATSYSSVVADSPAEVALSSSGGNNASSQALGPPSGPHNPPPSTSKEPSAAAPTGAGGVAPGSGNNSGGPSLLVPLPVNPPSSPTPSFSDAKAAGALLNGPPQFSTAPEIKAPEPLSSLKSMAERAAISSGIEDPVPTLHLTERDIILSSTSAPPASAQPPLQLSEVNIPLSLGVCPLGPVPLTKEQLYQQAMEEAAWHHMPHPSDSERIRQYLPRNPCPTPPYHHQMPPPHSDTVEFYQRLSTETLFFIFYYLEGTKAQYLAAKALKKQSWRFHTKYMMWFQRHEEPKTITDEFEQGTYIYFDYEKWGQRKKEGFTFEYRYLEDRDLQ
UniProt P30085: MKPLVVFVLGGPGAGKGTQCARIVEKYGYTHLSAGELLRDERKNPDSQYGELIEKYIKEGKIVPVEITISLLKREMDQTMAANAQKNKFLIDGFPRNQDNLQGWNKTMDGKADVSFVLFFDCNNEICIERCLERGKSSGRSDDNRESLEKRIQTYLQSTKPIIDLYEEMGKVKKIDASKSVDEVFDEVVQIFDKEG

Columns and labels:
Test in all cases: log2 fold change, soluble protein after heating vs DMSO (PISA); higher = thermal stabilisation; K562 cells, 10 uM, 30 min; active = over 0.2 and 3.5 SD of the protein, either way, in both replicates (recomputed)
[1] = compound: C#Cc1cccc(Nc2ncnc3cc(OCCOC)c(OCCOC)cc23)c1 [erlotinib]
Procedure, shortened: (§1)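 K562 cells at 2×10^6 cells/mL were given 10 μM compound for 30 min. Aliquots then went through 3 min of heating across 48°C-58°C, were pooled, and were extracted in PBS with 0.5% NP-40 at 4°C, and the supernatant after 21,000xg for 90 min was quantified by TMTpro 16plex LC-MS/MS with channel sums equalised. Thermal stability relative to control samples, from duplicates, is given as log2 fold change.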

[2] = compound: C/C(=N\NC(=O)C1=CC(=CC=C1)S(=O)(=O)N2CCOCC2)/C3=C(C=CC(=C3)Cl)O
Procedure, shortened: as §1

[3] = compound: C1=CC(=C(C=C1Cl)C2=NC3=NC=CN=C3C(=N2)NC4=CC=NC=C4)F
Procedure, shortened: as §1

[4] = compound: C1=CC(=CC=C1C2=NC3=C(N2)C=C(C=C3)C(=O)N)OC4=CC=C(C=C4)Cl
Procedure, shortened: as §1

[5] = compound: C1=CC2=C(C=CC(=C2)/C=C\3/C(=O)NC(=NCC4=CC=CS4)S3)N=C1
Procedure, shortened: as §1

[6] = compound: C1=CC2=NC=CN=C2C=C1/C=C/3\C(=O)NC(=O)S3
Procedure, shortened: as §1

[7] = compound: C1=CC=C(C=C1)C2=NC(=C(N2)C3=CC=NC=C3)C4=CC(=C(C=C4)Cl)O
Procedure, shortened: as §1

[8] = compound: C1=CC=C2C(=C1)C3=NNC4=CC=CC(=C43)C2=O
Procedure, shortened: as §1

[9] = compound: C1CCN(C1)C(=O)NC2=CC=CC(=C2)NC3=NC=C(C(=N3)NCCC4=CN=CN4)Br
Procedure, shortened: as §1

[10] = compound: C1CN(CCC1(CC2=CC=C(C=C2)Cl)N)C3=NC=NC4=C3C=CN4
Procedure, shortened: as §1

[11] = compound: C1COCCN1CCN2C3=CC=CC=C3N=C2NC(=O)C4=CC(=CC=C4)[N+](=O)[O-] [IRAK-1-4 Inhibitor I]
Procedure, shortened: as §1

[12] = compound: C=CC(=O)N1CCC[C@@H](n2nc(-c3ccc(Oc4ccccc4)cc3)c3c(N)ncnc32)C1 [ibrutinib]
Procedure, shortened: as §1

[13] = compound: CC(=O)c1cnc2ccc(-c3cc(Cl)c(O)c(Cl)c3)nc2c1N[C@H]1CC[C@H](CN(C)C)CC1
Procedure, shortened: as §1

[14] = compound: CC(C)(C)Cn1c(N)nc2ccc(-c3[nH]c(C(C)(C)C)nc3-c3ccc(F)cc3)nc21 [ralimetinib]
Procedure, shortened: as §1

[15] = compound: CC(C)(O)CC(=O)NCCn1ccc2ncnc(Nc3ccc(Oc4cccc(C(F)(F)F)c4)c(Cl)c3)c21
Procedure, shortened: as §1

[16] = compound: CC(C)C1=C2N=C(C=C(N2N=C1)NCC3=CC=CC=C3)NCCCCCCN
Procedure, shortened: as §1

[17] = compound: CC(C)C[C@@H](C=O)NC(=O)[C@H](CC(C)C)NC(=O)[C@H](CC(C)C)NC(=O)OCc1ccccc1
Procedure, shortened: as §1

[18] = compound: CC(C)N(C[C@H]1O[C@@H](n2cnc3c(N)ncnc32)[C@H](O)[C@@H]1O)[C@H]1C[C@@H](CCc2nc3cc(C(C)(C)C)ccc3[nH]2)C1 [pinometostat]
Procedure, shortened: as §1

[19] = compound: CC1=C(C(CC(=O)N1)C2=CC=C(C=C2)C(F)(F)F)C(=O)NC3=C(C=C4C(=C3)C=NN4)F
Procedure, shortened: as §1

[20] = compound: CC1=C(C2=C(C=C1)C(=O)C3=CC=CC=C3N2CCCN)C
Procedure, shortened: as §1

Measured: log2 fold change

COL1A2 (UniProt P08123)
inactive: [1] 0.06 | [2] -0.106 | [3] 0.055 | [4] 0.145 | [5] 0.101 | [6] 0 | [7] -0.035 | [8] -0.183 | [9] 0.22 | [10] 0.228 | [11] -0.05 | [12] -0.4 | [13] 0.07 | [14] 0.015 | [15] 0.221 | [16] 0.399 | [17] 0.057 | [18] 0.101 | [19] 0 | [20] -0.26

CNP (UniProt P09543)
inactive: [1] 0.005 | [2] 0.062 | [3] 0.028 | [4] -0.014 | [5] -0.005 | [6] 0.006 | [7] 0.005 | [8] 0.016 | [9] -0.003 | [10] 0.004 | [11] 0.027 | [12] -0.003 | [13] -0.041 | [14] -0.043 | [15] -0.009 | [16] 0.052 | [17] 0.011 | [18] -0.017 | [19] 0.01 | [20] 0.071

CIAO3 (UniProt Q9H6Q4)
inactive: [1] 0.039 | [2] 0.082 | [3] 0.01 | [4] -0.001 | [5] 0.063 | [6] -0.014 | [7] -0.008 | [8] -0.03 | [9] -0.043 | [10] 0.014 | [11] 0.08 | [12] -0.011 | [13] -0.002 | [14] -0.051 | [15] -0.015 | [16] -0.044 | [17] 0.001 | [18] -0.031 | [19] -0.01 | [20] 0.073

COA1 (UniProt Q9GZY4)
inactive: [1] 0.031 | [2] -0.029 | [3] 0.01 | [4] -0.002 | [5] 0.043 | [6] 0.039 | [7] 0.005 | [8] -0.003 | [9] 0.009 | [10] 0.04 | [11] 0.062 | [12] -0.02 | [13] -0.019 | [14] -0.064 | [15] 0.008 | [16] -0.132 | [17] 0.037 | [18] -0.004 | [19] -0.028 | [20] 0.05

CIB1 isoform 2 (UniProt Q99828)
inactive: [1] 0 | [2] 0.025 | [3] 0.148 | [4] 0.015 | [5] 0.05 | [6] -0.005 | [7] -0.026 | [8] 0.04 | [9] -0.102 | [10] -0.121 | [11] 0.019 | [12] 0.056 | [13] 0.035 | [14] -0.012 | [15] -0.066 | [16] -0.064 | [17] 0.035 | [18] -0.091 | [19] -0.052 | [20] 0.172

CIAO1 (UniProt O76071)
inactive: [1] 0.021 | [2] 0.005 | [3] 0.086 | [4] -0.025 | [5] -0.029 | [6] 0.008 | [7] -0.02 | [8] 0.038 | [9] -0.012 | [10] 0.026 | [11] -0.032 | [12] 0.004 | [13] -0.026 | [14] -0.05 | [15] -0.009 | [16] 0.009 | [17] -0.073 | [18] -0.015 | [19] 0.04 | [20] 0.096

CNOT6L (UniProt Q96LI5)
inactive: [1] 0.669 | [2] -0.146 | [3] -0.021 | [4] 0.038 | [5] -0.05 | [6] -0.145 | [7] -0.03 | [8] -0.016 | [9] -0.073 | [10] 0.02 | [11] -0.013 | [12] -0.002 | [13] -0.042 | [14] -0.031 | [15] -0.062 | [16] -0.026 | [17] 0.053 | [18] 0.012 | [19] 0.08 | [20] 0.114

CNOT11 (UniProt Q9UKZ1)
inactive: [1] -0.116 | [2] -0.009 | [3] 0.037 | [4] 0.025 | [5] 0.081 | [6] -0.007 | [7] 0.061 | [8] -0.058 | [9] -0.126 | [10] -0.007 | [11] 0.047 | [12] 0.039 | [13] -0.165 | [14] 0.073 | [15] 0.03 | [16] -0.021 | [17] 0.061 | [18] 0.064 | [19] -0.01 | [20] 0.064

CMBL (UniProt Q96DG6)
inactive: [1] 0.084 | [2] -0.024 | [3] 0.059 | [4] -0.084 | [5] 0.049 | [6] 0.008 | [7] 0.007 | [8] -0.01 | [9] 0.025 | [10] 0.021 | [11] 0.074 | [12] 0.007 | [13] 0.167 | [14] -0.026 | [15] -0.016 | [16] 0.019 | [17] -0.05 | [18] -0.087 | [19] -0.028 | [20] 0.015

CHMP7 (UniProt Q8WUX9)
inactive: [1] 0.094 | [2] 0.046 | [3] 0.054 | [4] -0.087 | [5] 0.106 | [6] 0.134 | [7] 0.037 | [8] -0.078 | [9] -0.061 | [10] 0.033 | [11] -0.046 | [12] -0.07 | [13] 0.016 | [14] 0.107 | [15] -0.221 | [16] -0.252 | [17] -0.035 | [18] 0.127 | [19] -0.008 | [20] 0.037

CMTM6 (UniProt Q9NX76)
inactive: [1] -0.028 | [2] 0.139 | [3] 0.095 | [4] 0.099 | [5] 0.076 | [6] -0.018 | [7] 0.003 | [8] -0.037 | [9] 0.02 | [10] 0.017 | [11] -0.035 | [12] 0.036 | [13] -0.14 | [14] -0.064 | [15] -0.05 | [16] 0.223 | [17] 0.084 | [18] 0.044 | [19] 0.001 | [20] -0.005

CIRBP isoform 2 (UniProt Q14011)
inactive: [1] -0.056 | [2] -0.076 | [3] -0.219 | [4] 0 | [5] -0.02 | [6] 0.006 | [7] 0.009 | [8] 0 | [9] 0.035 | [10] -0.092 | [11] -0.083 | [12] 0.024 | [13] 0.061 | [14] 0.19 | [15] 0.055 | [16] 0.096 | [17] 0.115 | [18] 0.082 | [19] 0.011 | [20] -0.094

CNBP isoform 6 (UniProt P62633)
inactive: [1] -0.022 | [2] -0.017 | [3] -0.12 | [4] -0.021 | [5] -0.04 | [6] 0.011 | [7] -0.064 | [8] -0.014 | [9] -0.004 | [10] 0.035 | [11] 0.003 | [12] 0.038 | [13] 0.002 | [14] 0.058 | [15] 0.086 | [16] 0.134 | [17] 0.052 | [18] 0 | [19] 0.021 | [20] 0.038

CHMP6 (UniProt Q96FZ7)
inactive: [1] -0.039 | [2] 0.041 | [3] 0.121 | [4] -0.026 | [5] 0.012 | [6] 0.039 | [7] -0.01 | [8] -0.072 | [9] 0.002 | [10] 0.094 | [11] 0.045 | [12] 0.005 | [13] 0.01 | [14] 0.029 | [15] -0.031 | [16] 0.061 | [17] -0.085 | [18] -0.012 | [19] 0.041 | [20] 0.004

CNOT3 (UniProt O75175)
inactive: [1] -0.006 | [2] 0.105 | [3] 0.02 | [4] -0.01 | [5] 0 | [6] -0.011 | [7] 0.015 | [8] 0.005 | [9] 0 | [10] -0.01 | [11] 0 | [12] -0.012 | [13] -0.013 | [14] 0.014 | [15] -0.063 | [16] -0.043 | [17] -0.005 | [18] 0.038 | [19] -0.041 | [20] 0.013

CMPK1 (UniProt P30085)
inactive: [1] -0.042 | [2] 0.085 | [3] 0.123 | [4] -0.029 | [5] -0.015 | [6] 0.019 | [7] -0.019 | [8] 0.046 | [9] 0.058 | [10] 0.031 | [11] 0.04 | [12] 0.021 | [13] -0.008 | [14] -0.014 | [15] -0.029 | [16] 0.044 | [17] 0.003 | [18] 0 | [19] -0.01 | [20] 0.084
